Experimental data reported in PubChem BioAssay AID485298 (National Center for Advancing Translational Sciences (NCATS), 2010).
The campaign covered roughly 320,000 compounds. About 740 (0.23%) were called active. The inconclusive results got no clear call from the source; some entries with a clear call stand among them for comparison. Calls come from the whole dose curve; as a rule, active = well fitted activation curve with a large enough effect; inconclusive = small, poorly fitted or top-dose-only effect; inactive = no such curve, though single readings can be large or run the other way. Where the call is inconclusive, the potency comes from a doubtful curve fit. Some compounds were tested as several samples or in several runs, with calls that do not always agree.

experiment: qHTS Assay for Small Molecule Inhibitors of Mitochondrial Division or Activators of Mitochondrial Fusion; note: nearly all actives have a fitted effect of over 45% in size;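 for growth rescue (activation): temperature-sensitive fusion mutants such as fzo1-1 at 37 °C on non-fermentable ethanol glycerol medium; % of control where 0% means no effect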; conditions: S. cerevisiae fusion-defective mutant growth rescue, CellTiterGlo 48 h; growth rescue (activation): at 46.1 µM (top of the series) unless noted
How it was run: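 Luminescent cell viability in 1536-well qHTS format served as the measure of rescued growth in ts fusion-mutant S. cerevisiae cultured on non-fermentable YPEG for 48 hours at 37C.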
Potency is the fitted concentration of half-maximal effect.

| SMILES | Potency | growth rescue (activation) |
| --- | --- | --- |
| O=c1c2ccccc2c(=O)n(Cc2ccccc2)n1Cc1ccccc1 | inconclusive: 11.2 µM [activator, partial curve] |  |
| CCOCCOC(=O)c1[nH]c2c(c1C)C(=O)CC(c1cccs1)C2 (configuration not stated) |  | inactive: 0.789% |
| COc1ccccc1-c1nc2cc3ccccc3cc2nc1-c1ccccc1 | inconclusive: 12.6 µM [activator, partial curve] |  |
| COc1ccccc1-c1oc2ccccc2c1C#CCCCCO | inconclusive: 3.16 µM [activator, single point] |  |
| O=C(c1cn(-c2ccccc2)nc1-c1cccs1)N1CCN(c2ccccn2)CC1 | inconclusive: 17.8 µM [activator, partial curve] |  |
| CNC(=O)c1cc2cc(OC)ccc2n1CCN(Cc1ccccc1)Cc1ccccc1 |  | inactive: 15.8% |
| CSCCC(NC(=O)c1ccc(Cl)cc1)C(=O)OCC(=O)Nc1ccc(C#N)cc1 (configuration not stated) |  | inactive: 2.45% |
| O=C(N/N=C/c1ccc(-c2ccccc2[N+](=O)[O-])o1)[C@H]1C[C@@H]1c1ccccc1 | inconclusive: 35.5 µM [activator, single point] |  |
| CC(C)c1ccc(/C=C/C(=O)Nc2nn[nH]n2)cc1 | inconclusive: 17.8 µM [activator, partial curve] |  |
| CCCCOc1ccc(C(=O)NCC(=O)NNC(=O)C2COc3ccccc3O2)cc1 (configuration not stated) |  | inactive: 2.66% |
| O=c1[nH]ncc(N/N=C\c2ccncc2)c1Cl |  | inactive: -1.59% |
| C/C(N)=C(/C#N)C(=O)COC(=O)c1ccccc1Cc1ccccc1 | inconclusive: 14.1 µM [activator, partial curve] |  |
| N#C/C(=C\c1cn[nH]c1-c1ccc(Cl)cc1)C(=O)NCc1ccccc1 | inconclusive: 17.8 µM [activator, partial curve] |  |
| CSc1nc(C)cc(OCCO)n1 | inconclusive: 2.82 µM [activator, full curve] |  |
| COCCN(C(=O)CCc1ccccc1OC)c1nnc(-c2cccnc2)s1 | inconclusive: 12.6 µM [activator, partial curve] |  |
| CC(C)(C)C1CCC(OCC(O)CN2CCN(Cc3ccccc3)CC2)CC1 (configuration not stated) | inconclusive: 11.2 µM [activator, partial curve] |  |
| Cc1ccc(Sc2ncccc2C(=O)N(C)Cc2cccs2)c(C)c1 | inconclusive: 7.08 µM [activator, partial curve] |  |
| O=C(c1cc(-c2ccccc2)nc2ccccc12)N1CCc2ccccc2C1 |  | inactive: 10.7% |
| COc1ccc(-c2cc(C(F)F)n3ncc(C(=O)N4CCc5ccccc54)c3n2)cc1 |  | inactive: 1.32% |
| C=C(C)c1cccc(C(C)(C)NC(=O)Nc2ccc(C)cn2)c1 | inconclusive: 0.562 µM [activator, full curve, poor fit] |  |
| C/C(=N\NC(=S)NCCc1ccccc1)c1cccs1 | inconclusive: 31.6 µM [activator, single point] |  |
| C=CCNC(=O)/C(C#N)=C/c1c(C)nn(-c2ccc(Cl)cc2)c1Cl | inconclusive: 11.2 µM [activator, partial curve] |  |
| O=C(Nc1ccc(Cl)cc1)OCc1ccccn1 |  | inactive: -1.01% |
| COc1cc2c(cc1OC)C(C)N(C(=O)[C@@H](NC(=O)c1ccccc1)C(C)C)CC2 (some centres not stated) | inconclusive: 11.2 µM [activator, partial curve] |  |

Compounds from the list above with an aryl thioether with sulfur outside any ring (2):

| SMILES | Potency | growth rescue (activation) |
| --- | --- | --- |
| CSc1nc(C)cc(OCCO)n1 | inconclusive: 2.82 µM [activator, full curve] |  |
| Cc1ccc(Sc2ncccc2C(=O)N(C)Cc2cccs2)c(C)c1 | inconclusive: 7.08 µM [activator, partial curve] |  |

Following part.

| SMILES | Potency | growth rescue (activation) |
| --- | --- | --- |
| COc1cccc2c1nc(C)c1cc(C)oc12 |  | inactive: -6.3% |
| COc1ccc(-c2oc3ncnc(NCCCN4CCOCC4)c3c2-c2ccc(OC)cc2)cc1 | inconclusive: 17.8 µM [activator, single point] |  |
| Cc1[nH]n(-c2ccccc2)c(=O)c1/C=N/n1c(C)nc2ccccc2c1=O |  | inactive: 1.22% |
| COc1cccc(C2=CC(=O)C[C@H](c3ccc(F)cc3)C2)c1OC | inconclusive: 11.2 µM [activator, single point] |  |
| CN(Cc1ccc2c(c1)OCO2)C(=O)c1cc(-c2ccccc2)c(N2CCOCC2)s1 | inconclusive: 15.8 µM [activator, single point] |  |
| COC(=O)c1cc(C)nc2c1C(=O)C(=O)C=C2N1CCOCC1 |  | inactive: -3.38% |
| CC1=C(C(=O)NC2CCCC(C)C2C)C2(CCCCC2)OC1=O (configuration not stated) | inconclusive: 14.1 µM [activator, single point] |  |
| Cc1ccccc1NC(=S)N(Cc1ccccc1)Cc1cccnc1 |  | inactive: -5.44% |
| Cc1ncc(S(=O)(=O)c2ccc(Cl)cc2)c(-c2ccccc2)n1 |  | inactive: -3.97% |
| COc1ccc(OCC(=O)Nc2c3c(nn2C(C)(C)C)CSC3)cc1 | inconclusive: 28.2 µM [activator, single point] |  |
| CN(C)c1ccnc(SCc2ccccc2Cl)c1C#N | inconclusive: 17.8 µM [activator, partial curve] |  |
| CC(=O)c1cccc(NC(=O)CSC(=O)c2ccccc2)c1 | inconclusive: 12.6 µM [activator, partial curve] |  |
| O=c1oc2ccccc2cc1-c1ccccc1 | inconclusive: 35.5 µM [activator, single point] |  |
| CCNc1nc(OCC)nc(N2CCC(Cc3ccccc3)CC2)n1 |  | inactive: 0.0221% |
| O=C(c1cc(-c2ccccc2)nc2ccccc12)N1CCCc2ccccc21 | inconclusive: 22.4 µM [activator, single point] |  |
| Nc1nc(Br)c2ccccc2c1-c1ccccc1 | inconclusive: 22.4 µM [activator, partial curve] |  |
| CC(C)(C)NC(=O)C12CC3CC(CC(Cl)(C3)C1)C2 |  | inactive: 5.26% |
| CN1C(C(=O)Nc2ccccn2)=C(O)c2ccccc2S1(=O)=O | active: 16.4 µM |  |
| Cn1cncc1C#Cc1c(C=O)n(C)c2ccccc12 | inconclusive: 11.2 µM [activator, single point] |  |
| Cc1c(C(=O)N2CCN(c3ccccn3)CC2)cccc1[N+](=O)[O-] |  | inactive: 5.9% |
| COCCOC(=O)C1=C(C)NC(C)=C(C(=O)OC(C)C)C1c1cccc([N+](=O)[O-])c1 (configuration not stated) | active: 20.6 µM |  |
| CCCCn1c(CN2CCN(c3cccc(Cl)c3)CC2)nc2c1c(=O)[nH]c(=O)n2C | inconclusive: 15.8 µM [activator, single point] |  |
| CN(C)S(=O)(=O)c1ccc(NC(=O)CN2CCCc3ccccc32)cc1 | inconclusive: 20 µM [activator, single point] |  |
